Results are given in words; binding and its absence hold for the method and conditions named. Binding calls can cover weak binding; strength is not graded here. For some of these results: Sequences can lack the tags named with a protein. For some of these results: Binding seen in cells or lysates may run through a third protein.
Key:
[1] = biological target: T1, PBP2b-S (Strep-tagged full length PBP2b of Streptococcus pneumoniae) (S. pneumoniae R6) (UniProt P0A3M6); test: pull-down; Proteins co-expressed in one E. coli strain; DDM-solubilised membranes or Ni-NTA eluate; Strep-tagged protein held on Strep-Tactin (first or second step), eluted with 2.5 mM desthiobiotin; HNG buffer, 0.3 mM DDM; Coomassie SDS-PAGE, Western blot
T1 sequence: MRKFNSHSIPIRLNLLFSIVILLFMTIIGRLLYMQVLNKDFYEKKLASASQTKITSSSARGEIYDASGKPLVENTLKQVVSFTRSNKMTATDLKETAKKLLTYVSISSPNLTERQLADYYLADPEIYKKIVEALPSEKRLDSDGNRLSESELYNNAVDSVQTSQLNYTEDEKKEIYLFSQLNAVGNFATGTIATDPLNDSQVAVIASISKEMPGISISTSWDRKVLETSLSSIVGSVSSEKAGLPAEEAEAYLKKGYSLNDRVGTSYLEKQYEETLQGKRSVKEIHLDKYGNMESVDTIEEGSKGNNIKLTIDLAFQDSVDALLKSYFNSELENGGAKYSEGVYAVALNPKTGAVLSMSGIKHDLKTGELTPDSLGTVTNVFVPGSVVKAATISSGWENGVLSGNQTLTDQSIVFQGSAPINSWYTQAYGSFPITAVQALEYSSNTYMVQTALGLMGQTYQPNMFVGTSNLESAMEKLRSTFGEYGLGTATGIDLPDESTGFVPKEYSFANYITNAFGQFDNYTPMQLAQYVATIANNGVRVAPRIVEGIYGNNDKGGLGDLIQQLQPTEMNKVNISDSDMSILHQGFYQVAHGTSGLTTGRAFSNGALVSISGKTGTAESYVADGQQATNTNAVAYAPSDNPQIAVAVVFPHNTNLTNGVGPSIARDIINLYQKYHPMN

By UniProt entry, the sequences of proteins in these tests, tags left out. Where a name states a change or a piece, a line headed by the entry shows the natural chain unless it says otherwise.
UniProt P59676: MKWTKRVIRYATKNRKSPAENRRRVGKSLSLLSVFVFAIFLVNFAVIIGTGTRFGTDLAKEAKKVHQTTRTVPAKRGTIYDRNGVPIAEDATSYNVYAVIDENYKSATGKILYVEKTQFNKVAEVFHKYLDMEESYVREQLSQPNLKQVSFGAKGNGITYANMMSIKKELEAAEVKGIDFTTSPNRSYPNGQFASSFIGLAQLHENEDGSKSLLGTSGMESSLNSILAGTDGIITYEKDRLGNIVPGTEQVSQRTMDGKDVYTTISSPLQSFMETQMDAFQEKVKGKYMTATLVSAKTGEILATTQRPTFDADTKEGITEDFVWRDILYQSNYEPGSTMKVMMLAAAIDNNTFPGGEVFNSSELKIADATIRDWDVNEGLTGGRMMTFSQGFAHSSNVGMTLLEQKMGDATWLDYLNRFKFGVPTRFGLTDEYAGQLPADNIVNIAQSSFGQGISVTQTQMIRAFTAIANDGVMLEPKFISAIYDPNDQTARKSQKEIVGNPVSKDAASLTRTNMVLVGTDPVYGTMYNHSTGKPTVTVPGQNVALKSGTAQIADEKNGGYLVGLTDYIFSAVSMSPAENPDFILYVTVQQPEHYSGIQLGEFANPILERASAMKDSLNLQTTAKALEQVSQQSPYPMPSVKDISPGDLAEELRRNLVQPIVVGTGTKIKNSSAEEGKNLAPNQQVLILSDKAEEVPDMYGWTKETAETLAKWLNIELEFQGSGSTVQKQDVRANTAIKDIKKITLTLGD
UniProt A0ACD7PRK7: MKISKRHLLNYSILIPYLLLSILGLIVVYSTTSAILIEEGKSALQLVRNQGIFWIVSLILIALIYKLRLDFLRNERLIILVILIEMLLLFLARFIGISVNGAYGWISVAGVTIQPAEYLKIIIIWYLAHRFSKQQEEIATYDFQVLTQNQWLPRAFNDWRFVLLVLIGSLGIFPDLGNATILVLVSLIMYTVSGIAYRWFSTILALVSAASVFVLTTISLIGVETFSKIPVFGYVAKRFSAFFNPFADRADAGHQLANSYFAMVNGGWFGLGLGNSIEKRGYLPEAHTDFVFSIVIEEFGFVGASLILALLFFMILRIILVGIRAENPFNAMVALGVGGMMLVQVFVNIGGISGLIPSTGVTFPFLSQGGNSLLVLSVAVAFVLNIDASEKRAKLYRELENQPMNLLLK

[2] = biological target: PBP2x-S (Strep-tagged full length PBP2x of Streptococcus pneumoniae) (S. pneumoniae R6) (UniProt P59676); test: as above
[3] = biological target: H-FtsW (His-tagged full length FtsW of Streptococcus pneumoniae) (S. pneumoniae R6); test: SEC; Affinity-purified, concentrated protein or complexes on Superdex 200 10/30 or Superose 6 16/60 in HNG buffer with 0.3 mM DDM; peaks checked by immuno-blotting; both purified
[4] = biological target: H-FtsW (His-tagged full length FtsW of Streptococcus pneumoniae) (S. pneumoniae R6); test: pull-down; Proteins co-expressed in one E. coli strain; membranes solubilised with 10 mM DDM; His-tagged protein held on Ni-NTA, washed with 50 mM imidazole, eluted with 300 mM imidazole; HNG buffer (50 mM HEPES pH 7.5, 50 mM NaCl, 10% glycerol); Coomassie SDS-PAGE, Western blot; some complexes also in Triton X-100
[5] = biological target: H-DivIB (His-tagged full length DivIB of Streptococcus pneumoniae) (S. pneumoniae R6); test: as above
[6] = biological target: H-DivIB (His-tagged full length DivIB of Streptococcus pneumoniae) (S. pneumoniae R6); test: SEC; Affinity-purified, concentrated protein or complexes on Superdex 200 10/30 or Superose 6 16/60 in HNG buffer with 0.3 mM DDM; peaks checked by immuno-blotting; both purified

How did the binding [1] turn out when “H-DivIB (His-tagged full length DivIB of Streptococcus pneumoniae) (S. pneumoniae R6)” was run?
The binding was “binds weakly”.

For “H-FtsW (His-tagged full length FtsW of Streptococcus pneumoniae) (from UniProt A0ACD7PRK7)”, which binding [2] is on record?
The binding was “binds”.

With “PBP2x-S (Strep-tagged full length PBP2x of Streptococcus pneumoniae) (from UniProt P59676 1-750) (enzyme)” as the molecule, how does the binding [3] read?
The binding was “binds”.

What about the binding [4] of the same molecule?
Its binding is “binds”.

B1: PBP2b-S (Strep-tagged full length PBP2b of Streptococcus pneumoniae) (enzyme, UniProt P0A3M6 1-680)
chain: T1 sequence
B1 was tested. Which binding [5] did it give?
The binding was “binds weakly”.

B2: FtsL (untagged full length FtsL of Streptococcus pneumoniae) (protein, UniProt Q8DR70 1-105)
chain: MAEKMEKTGQILQMQLKRFSRVEKAFYFSIAVTTLIVAISIIFMQTKLLQVQNDLTKINAQIEEKKTELDDAKQEVNELLRAERLKEIANSHDLQLNNENIRIAE
Which results are given for B2?
binding [6]: binds; binding [5]: binds
